In paper PMC11983310 one finds binding data, which are given here for one substance.

Sequences of proteins named here, by UniProt entry; tags and fusion partners are left off.
UniProt P35222: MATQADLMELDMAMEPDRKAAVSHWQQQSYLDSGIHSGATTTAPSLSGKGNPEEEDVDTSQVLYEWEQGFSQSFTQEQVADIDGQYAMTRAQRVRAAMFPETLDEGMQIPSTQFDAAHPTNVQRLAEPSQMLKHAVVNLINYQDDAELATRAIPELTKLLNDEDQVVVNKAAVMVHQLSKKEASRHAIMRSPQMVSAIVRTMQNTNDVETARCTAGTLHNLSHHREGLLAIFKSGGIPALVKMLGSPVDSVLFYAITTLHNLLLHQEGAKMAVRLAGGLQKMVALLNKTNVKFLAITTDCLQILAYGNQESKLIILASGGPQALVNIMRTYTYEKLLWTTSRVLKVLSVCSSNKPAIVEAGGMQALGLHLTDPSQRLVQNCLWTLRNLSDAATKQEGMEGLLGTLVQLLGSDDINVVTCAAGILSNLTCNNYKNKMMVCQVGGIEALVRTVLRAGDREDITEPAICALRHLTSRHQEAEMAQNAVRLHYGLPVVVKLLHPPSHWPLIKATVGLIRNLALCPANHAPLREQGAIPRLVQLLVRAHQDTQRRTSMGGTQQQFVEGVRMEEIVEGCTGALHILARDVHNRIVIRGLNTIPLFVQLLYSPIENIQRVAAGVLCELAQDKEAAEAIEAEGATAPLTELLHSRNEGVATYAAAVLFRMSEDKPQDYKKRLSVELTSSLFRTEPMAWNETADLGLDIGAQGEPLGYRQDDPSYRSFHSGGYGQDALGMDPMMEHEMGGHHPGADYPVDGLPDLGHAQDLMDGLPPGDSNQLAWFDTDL

The assay concerns the target T1, F-box and WD-repeat-containing protein 2 (FBXW2), HA-tagged (UniProt Q9UKT8).
T1 sequence: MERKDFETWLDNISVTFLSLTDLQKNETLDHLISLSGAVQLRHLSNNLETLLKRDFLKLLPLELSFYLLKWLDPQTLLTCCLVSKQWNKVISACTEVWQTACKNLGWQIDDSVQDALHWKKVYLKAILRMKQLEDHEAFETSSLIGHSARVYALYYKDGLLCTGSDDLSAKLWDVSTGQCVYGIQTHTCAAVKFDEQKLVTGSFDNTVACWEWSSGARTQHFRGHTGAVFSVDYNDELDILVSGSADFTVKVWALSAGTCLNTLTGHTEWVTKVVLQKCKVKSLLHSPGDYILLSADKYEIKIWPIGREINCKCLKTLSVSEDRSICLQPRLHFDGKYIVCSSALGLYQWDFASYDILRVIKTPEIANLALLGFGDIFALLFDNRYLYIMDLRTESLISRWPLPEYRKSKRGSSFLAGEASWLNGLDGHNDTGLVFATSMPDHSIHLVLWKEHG
The assay can be described thus: co-IP; transfected AGS cells lysed; anti-HA or anti-FLAG antibody used to pull down the complex; Western blot with anti-β-catenin or anti-FLAG antibody. (A western blot detects proteins with antibodies after separation by electrophoresis.)

No constants are given. Whether binding was seen depends on the method and setting. Binding seen in cells or lysates may run through a third protein. Some binding calls cover weakened binding; strength is not graded here. Tags and fused reporters may be left off the sequences shown.

As to β-catenin (from UniProt P35222 1-781), the binding entry is “binds”.
